Test results reported in US20230405119A1.
No constants are given. Whether binding was seen depends on the method and setting. Some results given as binding are weak or reduced against the parent protein; the word gives no strength.

By UniProt entry, the sequences of proteins in these tests, tags left out. Where a name states a change or a piece, a line headed by the entry shows the natural chain unless it says otherwise.
UniProt P35225: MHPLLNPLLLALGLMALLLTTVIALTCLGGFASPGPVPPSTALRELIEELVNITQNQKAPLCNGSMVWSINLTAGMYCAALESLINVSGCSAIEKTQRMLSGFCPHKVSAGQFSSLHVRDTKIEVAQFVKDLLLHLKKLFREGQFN

Key:
immobilized IL13Rα2 = molecular target: T1, immobilized IL13Rα2 (UniProt Q14627); experiment: yeast-displayed IL13; surface plasmon resonance with immobilized recombinant receptor, as the filing words it
T1 sequence (looked up): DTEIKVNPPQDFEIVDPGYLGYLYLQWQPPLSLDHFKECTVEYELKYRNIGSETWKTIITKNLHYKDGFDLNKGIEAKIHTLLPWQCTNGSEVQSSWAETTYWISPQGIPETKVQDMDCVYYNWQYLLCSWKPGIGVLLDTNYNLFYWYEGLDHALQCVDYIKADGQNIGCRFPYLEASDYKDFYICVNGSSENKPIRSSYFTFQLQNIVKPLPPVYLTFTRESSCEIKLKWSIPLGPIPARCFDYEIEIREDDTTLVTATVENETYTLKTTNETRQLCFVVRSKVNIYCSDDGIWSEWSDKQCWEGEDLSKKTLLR

[1] = molecular target: T2, immobilized recombinant IL13Rα1 (UniProt P78552); experiment: as above
T2 sequence (looked up): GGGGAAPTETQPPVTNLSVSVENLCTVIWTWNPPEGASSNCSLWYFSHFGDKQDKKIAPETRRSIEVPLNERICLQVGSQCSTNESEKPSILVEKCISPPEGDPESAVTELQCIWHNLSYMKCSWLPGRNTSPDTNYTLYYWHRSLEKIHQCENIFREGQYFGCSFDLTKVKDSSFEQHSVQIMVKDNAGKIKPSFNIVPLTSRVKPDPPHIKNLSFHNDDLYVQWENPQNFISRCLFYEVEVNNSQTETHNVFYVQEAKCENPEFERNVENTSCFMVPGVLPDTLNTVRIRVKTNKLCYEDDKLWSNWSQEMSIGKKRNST

binding (immobilized IL13Rα2): binds
binding [1]: binds
Substance: wild-type IL13 (from UniProt P35225 35-146) (ligand)
